No constants are given. Whether binding was seen depends on the method and setting. In cells and extracts the contact can be indirect. A yes stands for co-enrichment or nearness to the bait. Other partners may have been found. For part of these data: No binding means not detected with the bait. For part of these data: Where a sequence is shown, tags or fusion partners need not be part of it.
T1: SkpA-GFP (Aspergillus nidulans) (UniProt Q5BAX8)
T1 sequence: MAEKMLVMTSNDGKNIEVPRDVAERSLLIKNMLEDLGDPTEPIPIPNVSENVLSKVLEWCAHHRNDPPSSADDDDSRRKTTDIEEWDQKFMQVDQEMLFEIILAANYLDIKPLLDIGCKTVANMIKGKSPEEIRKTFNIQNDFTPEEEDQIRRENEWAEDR

By UniProt entry, the sequences of proteins in these tests, tags left out.
UniProt Q00659: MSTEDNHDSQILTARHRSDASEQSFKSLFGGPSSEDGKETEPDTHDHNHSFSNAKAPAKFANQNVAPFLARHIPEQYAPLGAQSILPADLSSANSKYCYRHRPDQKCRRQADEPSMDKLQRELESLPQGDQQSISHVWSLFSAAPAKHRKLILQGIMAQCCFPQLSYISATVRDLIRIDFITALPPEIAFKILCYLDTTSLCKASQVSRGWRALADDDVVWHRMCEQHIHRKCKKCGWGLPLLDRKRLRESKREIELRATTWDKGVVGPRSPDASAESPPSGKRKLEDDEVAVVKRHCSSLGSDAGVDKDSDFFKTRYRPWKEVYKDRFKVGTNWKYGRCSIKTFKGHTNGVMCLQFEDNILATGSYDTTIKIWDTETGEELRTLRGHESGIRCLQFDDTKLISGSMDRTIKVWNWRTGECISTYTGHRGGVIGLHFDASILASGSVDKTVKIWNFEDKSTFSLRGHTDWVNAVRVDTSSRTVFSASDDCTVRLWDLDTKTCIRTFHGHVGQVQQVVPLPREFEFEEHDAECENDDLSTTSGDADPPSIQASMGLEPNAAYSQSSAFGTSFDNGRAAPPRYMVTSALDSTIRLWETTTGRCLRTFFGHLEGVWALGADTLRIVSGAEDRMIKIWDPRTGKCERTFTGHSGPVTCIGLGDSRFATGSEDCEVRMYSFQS

B1: StcW (enzyme, UniProt Q00730 1-601)
chain: MTVHYVHEGPEPQESRYSIPQHTTWMDPNNRRLRVITIGAGFSGILMAYQIQKQCANIEHVVYEKNHDIGGTWLTNRYPNAGCDVPSHAYTYRFALYPDWPRYFSYASDIWEYLDKVCAAFKLRQYMQFRTEVIKACWNEEEGQWKVRLRRQRPGQEPEEFDDHCHILLNACGVLSNPKWPDTPGLHDRFKGRVIHTAAWPDDYGEVQWNSDRVAVIGSGASSIQAVAGIQPHVGHLDIFVRTGVWFGVLAGNTGAPTKIYSEAERAQFRSNPSALVEHTKSIEAEVNGMWGAFYRDSMAQKGASAFFRQRMASIIKDDRLAKGFTPTFGFGCRRITPGDPYMHAIQQANVDVHFTAVASCTEDGIVGADGIERLVDTIVCASGFDNTYRPQFPIIGRRGVDLRDKWKTNPEAYLGLAVPDMPNYITFIGPSWPIQNGSVMAPLHSVSEYAIQFLKKMQNENIRAWAPRQQITDRFNEHVQEWVKHTVWSDQCRSWYKNNETGRVNAIWPGSSLHYQAVIERPRYEDFEISYADANPWAHLGMGWTMLDRAGGKQADVSPHLCLENIDPVWFKSIGGDVDILRKQLEKGHTLPNNASHAEA
B2: NudC (protein, UniProt P17624 1-198)
chain: MSEQEPSSADLAAREAEEKQRKAAEEAEQATLPYKWTQTIRDVDVTIPVSANLKGRDLDVVLKKDSIKVKVKGENGEVFIDGQFPHPIKPSESSWTLETTSKPPGKEVSIHLDKVNQMEWWAHVVTTAPKIDVSKITPENSSLSDLDGETRAMVEKMMYDQRQKEMGAPTSDEQRKMDILKKFQKEHPEMDFSNAKIG
B3: StcT (protein, UniProt Q00717 1-215)
chain: MPFGTLYTRPFNPRSLAILAIAKANNLPLKIKTITSFKDATEEYLQLNPLGKIPTFVGADGYVLTESIAIALYDSNTTLLGTTGQEYASIIRWMAFGITEILPALGGWFNPLIGRANFNADNIYQSKDDTLARLKILDNHLCGREYLVGETLSLADLFVLGIVQGAFRFFLDKRWRDEHRNLSTWFERVHALPIVVDVAGPPVLAEYEMPIQPPK
B4: HogA (enzyme, UniProt Q9P419 1-379)
chain: MAEFVRAQIFGTTFEITSRYTDLQPVGMGAFGLVCSARDQLTAQPVAVKKIMKPFSTPVLSKRTYRELKLLKHLRHENIISLSDIFISPLEDIYFVTELLGTDLHRLISSRPLEKQFIQYFLYQIMRGLKYVHSAGVVHRDLKPSNILINENCDLKICDFGLARIQDPQMTGYVSTRYYRAPEIMLTWQKYDAKVDVWSAACIFAEMLLGAPLFPGKDHVNQFSIITELLGTPPDDVIQTICSENTLRFVKSLPKREPQDLAKLPKFLALVHPDKKPEEDEDYKNTINLLKAMLVYNPKDRISAEAALAAPYLAPYHDETDEPVAEEKFDWSFNDADLPVDTWKIMMYSEILDFHNIDQGGDINPALVEGAGLNQQGFQ
B5: SkpA (protein, UniProt Q5BAX8 1-161)
chain: MAEKMLVMTSNDGKNIEVPRDVAERSLLIKNMLEDLGDPTEPIPIPNVSENVLSKVLEWCAHHRNDPPSSADDDDSRRKTTDIEEWDQKFMQVDQEMLFEIILAANYLDIKPLLDIGCKTVANMIKGKSPEEIRKTFNIQNDFTPEEEDQIRRENEWAEDR
B6: kinase subunit PkaR (protein, UniProt O59922 1-412)
chain: MSNYSHSSNNPFLKVSTKEDKPSSFHKIAEDEEYEVTSPTDATFRASKNADNSAGGNNPLESGRAGESGDGIRFGRDPFGNFQGGAEGQDESSIDPNGFRPTGGPDHGFPNNYALGRRTSVSAESLNPTSAGSDSWTPPSHPKSEEQLARLKTAVSNNFLFSHLDDEQSRTVLDALVEKPIPAKDIKVISQGDAGDYFYIVEEGHFDVYINPSGSVQPGPDGAGTKISTIGPGGSFGELALMYNAPRAATIVSTEPKSTLWALDRITFRRILMDSAFQRRRMYEAFLEEVPLLSSLKPYERAKIADALDTIKFPAGEYIIKEGDPGDAFYLLESGEAEAFMEGVEEPVKSYKRGDYFGELALLDDKPRAASVRAKTEVKVAKLGRDGFKRLLGPVENIMRRTEYSSRPSTAT
B7: serine/threonine kinase Atg1 (enzyme, UniProt Q5BCU8 1-935)
chain: MASTPSKSSRSSKEAYSEVAIGPYTRLDHIGKGSFATVYRGVQTKSRTFVAIKSVNLGKLNRKLKDNLAMEIDILKYLLHPHIVALLDCLETNSHIHLIMEYCALGDLSQFIKRRDSLKDHSYTRHMISKYPNVSGGALNEVIVRHFLKQLASALRFLRDKNLIHRDIKPQNLLLCPAPKPAPTQSEAEPQIVPLKGSETSFTPAVGLETLPLLKLADFGFARSLPATSLAETLCGSPLYMAPEILRYEKYDAKADLWSVGTVLYEMVVGKPPFRATNHVELLRKIETARDRIKFPEENPASDDIKALVRGLLKFNPVVRMTFADFFENDIITGPIPGLAAEDVPIPDRPPSPEVIPTESAEPQSVSDTIYPRNNDAEPKEDRYPPPHRYVPHNDRPQTPTSSSPMRRTRSGDRPSSAKQIPPAAAPPRPEAVSHATAPGRQELIGRHSSEQQAPGTVPVYKNVDKLKEERELAAQEVAFERDYVVVEKRAVEVNAFADQLAYDPRFHGKQTGALPRRQTTPALPTTQASSQNSPRKAVQVVSGRSRADSAHNRHASYERRYGQSPTSATSAISKALNMASGRLFGVGFSPPLNIAKGGRSPPLAYNPFPAYPTGHAGLLTMGDGARAQASPDEDTRTVKELEECATRSDVVYGFAEVKYKQLIPLAPSSQSYNSPNAPGTNFEEGELTPDAAVTLSEEALVLYVKALSLLAKSMDIAGAWWMRKNRAEALGESSFSRLEPVSIRINKVVQWVRSRFNEVLEKAEFVRLKLLEAQRRLPTDHPSHPNNLSLESAGSGTSVDVMVSPGVTAEKLMYDRALEMSRAAAINELTSEDLPGCEIAYVTAIRMLEAVLETDEVQPSGKGTDKVTLDGVQGEEREVLLKLVSKIRMRLATLRQKLAVLAKRQTPPSSGKMIPSNLAHATPATPATGMATPR
B8: TF SteA (yeast Ste12) (protein, UniProt O74252 1-692)
chain: MYSQHGAPMAPPQKPETFMLSNEAQQSLPHDAQVALQQVDNLKYFLLSAPVDWQPDQLIRRFLLPTGDYISCVLWSNLFHISGTDIVRCLAFRFQAFGRPVKNSKKFEEGIFSDLRNLKAGTDATLEEPKSPFLDFLYKNNCIRTQKKQKVFYWYSVPHDRLFLDALERDLKREKMGQEATTVAVSEPALSFEFDSSQSLYEQLTKAQQANSSSFAAHASTTYGQSASPVVRTVDAMPPPQMAPQMAPPSIPLLTDESANSQMYTSIPMPNPIPQNLIKREADYGAIQYDRNGMPIARIHQRHSSMPTFVEYSPAPSFVSSQYEDYSNRGLSFEPVTPPQHSSHIGPEPAYIANEDTGLYTAIPEMSTGSGFNPMMHLPPSNLASAHFPTPARTFHSNVYSVLEGSPTYKQRRRRSSIPPGAANPVTTGTHSPAPALSYAAHKPSDLRRSVSSSVAPGDTDDSRHESLHRSVNSTYTATLPQKNLMHEMSRNGTPLSSVGEHREQSSIPLTQAEDLPALPANGTVESGAPNGVGHKSDRYATGPVRRARSATMMELGPYPQKSHSCPIPSCGRLFKRLEHLKRHVRTHTQERPYPCPYCNKAFSRSDNLAQHRRIHEAQQDGQPLVHEDDLENDDNESVSHDEDESPSESVHPAVPGVHGMTSMPSSVALQSTMGSMMGSHMIAPQLLQQQI

Legend:
[1] = molecular target: T1, SkpA-GFP (Aspergillus nidulans); experiment: affinity purification with mass spectrometry; GFP trap of SkpA-GFP (native locus) from A. nidulans: vegetative growth 24h, asexual development in light 24h, sexual development in the dark, osmotic stress (0.5 M NaCl), oxidative stress (5 mM H2O2, 80 μM Menadione); LC-MS; filtered against the free GFP control; at least two biological replicates
[2] = molecular target: T1, SkpA-GFP (Aspergillus nidulans); experiment: condition: only stress conditions (5 mM H2O2, 80 μM Menadione, 0.5 M NaCl); affinity purification with mass spectrometry; GFP trap of SkpA-GFP from A. nidulans under the stress conditions only (5 mM H2O2, 80 μM Menadione, 0.5 M NaCl); LC-MS
[3] = molecular target: Fbx15-GFP (Aspergillus nidulans); experiment: affinity purification with mass spectrometry; GFP trap (GFP-TRAP sepharose or magnetic particles, Chromotek) of Fbx-GFP fusions and their F-box deleted forms from A. nidulans vegetative cultures at 30°C for 24h, for Fbx15/23/25/27 also under osmotic (NaCl) and oxidative (H2O2) stress; LC-MS; two biological replicates
[4] = molecular target: Fbx47-GFP (Aspergillus nidulans); experiment: as above
[5] = molecular target: CulA-GFP (Aspergillus nidulans); experiment: affinity purification with mass spectrometry; GFP trap of CulA-GFP from A. nidulans, vegetative growth; LC-MS; filtered against the free GFP control
[6] = molecular target: Fbx25-GFP (Aspergillus nidulans) (UniProt Q00659); experiment: affinity purification with mass spectrometry; GFP trap (GFP-TRAP sepharose or magnetic particles, Chromotek) of Fbx-GFP fusions and their F-box deleted forms from A. nidulans vegetative cultures at 30°C for 24h, for Fbx15/23/25/27 also under osmotic (NaCl) and oxidative (H2O2) stress; LC-MS; two biological replicates
[7] = molecular target: Fbx27-GFP (Aspergillus nidulans); experiment: as above
[8] = molecular target: FΔFbx27-GFP (Aspergillus nidulans); experiment: affinity purification with mass spectrometry
[9] = molecular target: FΔFbx15-GFP (Aspergillus nidulans); experiment: affinity purification with mass spectrometry

Row | Molecule | binding [1] | further results
1 | Fbx23 | binds | –
2 | Fbx52 | no binding | –
3 | Fbx25/SconB (from UniProt Q00659 1-678) | binds | –
4 | Fbx18 | binds | –
5 | CulA | binds | –
6 | Fbx50/GrrA | binds | –
7 | Fbx11 | binds | –
8 | Fbx72 | binds | –
9 | Fbx38 | no binding | –
10 | Fbx19 | binds | –
11 | Fbx57 | no binding | –
12 | Fbx27 | binds | –
13 | Fbx36 | binds | binding [2]: no binding
14 | Fbx51 | binds | –
15 | Fbx1 | binds | –
16 | Fbx3 | no binding | –
17 | Fbx10 | binds | –
18 | Fbx74 | binds | –
19 | Fbx15 | binds | –
20 | B1 | – | binding [3]: binds
21 | B2 | – | binding [3]: binds
22 | B3 | – | binding [3]: binds
23 | B4 | – | binding [4]: binds
24 | B5 | – | binding [5]: binds; binding [6]: binds; binding [7]: binds; binding [3]: binds; binding [8]: binds; binding [9]: binds
25 | B6 | – | binding [7]: binds
26 | B7 | – | binding [7]: binds
27 | B8 | – | binding [3]: binds

From article PMC9744329
